Like-named read-outs stand apart in the source and are kept apart here. Some entries share one result that the patent states for a list of compounds.
Tests used:
Format in all cases: in vivo
[1] = test system: cucumber stem rot pathogen (Fusarium oxysporum); test: Cucumber seed treatment test in soil infected with cucumber stem rot; settings: cucumber seeds treated at 1 g/kg of seeds, sown in infected soil, 3 weeks
[2] = test system: cucumber gray mold pathogen (Botrytis cinerea); test: Cucumber gray mold control test; settings: cucumber seedlings (Sagami Hanjiro), emulsion sprayed at 100 ppm, 4 days
Experimental: Sagami Hanjiro, leaf stage: cotyledon) cultivated in unglazed pots, and allowed to air-dry at room temperature. Subsequently, the seedlings were drip-inoculated with conidiospore suspensions of cucumber gray mold pathogen (Botrytis cinerea) followed by holding for 4 days in a dark room at 20° C. and high humidity. The appearance of lesions on the leaves was compared with untreated seedlings to determine control effects.

[3] = test system: apple scab pathogen (Venturia inaequalis); test: Apple scab control test (100 ppm spray on apple seedlings); settings: apple seedlings (Ralls Janet), emulsion sprayed at 100 ppm, inoculated with Venturia inaequalis, 2 weeks
Experimental: Ralls Janet, leaf stage: 3 to 4) cultivated in unglazed pots and allowed to air-dry at room temperature. Subsequently, the seedlings were inoculated with conidiospores of apple scab pathogen (Venturia inaequalis) followed by holding for 2 weeks indoors at 20° C. and high humidity using a 12 hour light/dark cycle. The appearance of lesions on the leaves was compared with untreated seedlings to determine control effects.

[4] = test system: cucumber seed rot pathogen (Fusarium oxysporum); test: Cucumber stem rot seed treatment test (infected seeds); settings: infected cucumber seeds treated at 1 g/kg of seeds, 3 weeks after sowing
[5] = test system: rice blast pathogen (Magnaporthe grisea); settings: rice seedlings (Koshihikari), 400 ppm dropped onto water surface, inoculated 14 days later
[6] = test system: rice blast pathogen (Magnaporthe grisea); settings: rice seedlings (Koshihikari), 400 ppm dropped onto water surface, inoculated two days later

Row | Structure (SMILES) | control value [1] | control value [2] | control value [3] | control value [4] | control effects [5] | control effects [6]
1 | C#CCOC(C)(C)c1ncccc1Oc1cc2ccc(F)c(F)c2nc1C [a-86] | ≥ 75% | ≥ 75% | ≥ 75% | ≥ 75% | A (Control value of 60% or more) | 
2 | CC(=O)C(C)(C)c1c(F)cccc1Oc1cnc2c(F)cccc2n1 [Compound 1-10, 3-[2-fluoro-6-(5-fluoro-quinoxalin-2-yloxy)-phenyl]-3-methyl-butan-2-one] |  |  |  |  | A (Control value of 60% or more) | 
3 | COC(C)(C)c1ncccc1Oc1nc2cccc(F)c2nc1C [Compound 1-27] |  | ≥ 75% | ≥ 75% |  | A (Control value of 60% or more) | 
4 | CCC(C)(C#N)c1ncccc1Oc1cnc2c(F)cccc2c1 (racemic) [a-46] | ≥ 75% | ≥ 75% | ≥ 75% | ≥ 75% |  | A (Control value of 60% or more)
5 | CC(C)(O)c1ncccc1Oc1cnc2c(F)cccc2c1 [a-8] |  | ≥ 75% | ≥ 75% | ≥ 75% |  | 
6 | COC(C)(C)c1c(F)cccc1Oc1cnc2ccccc2n1 [Compound 1-5] | ≥ 75% | ≥ 75% | ≥ 75% |  | A (Control value of 60% or more) | 
7 | CCOC(C)(C)c1ncccc1Oc1nc2ccc(F)c(F)c2nc1C [Compound 1-51] |  | ≥ 75% | ≥ 75% |  | A (Control value of 60% or more) | 
8 | CC(C)(C#N)c1ncccc1Oc1cnc2c(F)cccc2n1 [Compound 1-20] | ≥ 75% | ≥ 75% | ≥ 75% | ≥ 75% |  | A (Control value of 60% or more)
9 | Cc1nc2cc(F)ccc2cc1Oc1cccnc1C(C)(C)C(=O)OC(C)C [a-95] |  | ≥ 75% | ≥ 75% | ≥ 75% |  | B (Control value of 40% to less than 60%)
10 | CC(C)OC(=O)C(C)(C)c1ncccc1Oc1cnc2cc(F)ccc2n1 [Compound 1-70] |  | ≥ 75% | ≥ 75% |  | A (Control value of 60% or more) | 
11 | C=CCOC(C)(C)c1ncccc1Oc1nc2cccc(F)c2nc1C [Compound 1-30] | ≥ 75% | ≥ 75% | ≥ 75% | ≥ 75% | A (Control value of 60% or more) | 
12 | CCOC(C)(C)c1ncccc1Oc1cc2cccc(F)c2nc1C [a-56, 3-[2-(2-ethoxy-2-propyl)pyridin-3-yloxy]-8-fluoro-2-methylquinoline] |  |  |  |  | A (Control value of 60% or more) | 
13 | CC(=O)C(C)(C)c1c(F)cccc1Oc1cnc2ccccc2n1 [Compound 1-4] | ≥ 75% | ≥ 75% | ≥ 75% |  | A (Control value of 60% or more) | 
14 | COC(C)(C)c1ncccc1Oc1cc2cccc(F)c2nc1C [a-16, 3-[2-(2-methoxy-2-propyl)pyridin-3-yloxy]-8-fluoro-2-methylquinoline] |  |  |  |  | A (Control value of 60% or more) | 
15 | CCCCN(C)C(=O)C(C)(C)c1ncccc1Oc1cnc2c(F)c(F)ccc2n1 [Compound 1-57] | ≥ 75% | ≥ 75% | ≥ 75% | ≥ 75% |  | A (Control value of 60% or more)
16 | COCC(C)OC(=O)C(C)(C)c1ncccc1Oc1cnc2c(F)c(F)ccc2n1 (stereo not shown) [Compound 1-68] | ≥ 75% | ≥ 75% | ≥ 75% | ≥ 75% |  | A (Control value of 60% or more)
17 | CCOC(=O)C(C)(C)c1ncccc1Oc1cnc2c(F)cccc2c1 [a-12, 2-[3-(8-fluoro-quinolin-3-yloxy)-pyridin-2-yl]-2-methylpropionic acid ethyl ester] |  |  |  |  | A (Control value of 60% or more) | 

Row | Structure (SMILES) | control value [1] | control value [2] | control value [3] | control value [4] | control effects [5] | control effects [6]
18 | CC(=O)C(C)(C)c1c(F)cccc1Oc1nc2cccc(F)c2nc1C [Compound 1-11] |  | ≥ 75% | ≥ 75% |  | A (Control value of 60% or more) | 
19 | CC(C)OC(=O)C(C)(C)c1ccccc1Oc1cnc2c(F)c(F)ccc2n1 [Compound 1-24] | ≥ 75% | ≥ 75% | ≥ 75% | ≥ 75% |  | 
20 | CCN(C)C(=O)C(C)(C)c1ncccc1Oc1cnc2c(F)cccc2c1 [a-54] | ≥ 75% | ≥ 75% | ≥ 75% | ≥ 75% |  | A (Control value of 60% or more)
21 | C=CCOC(C)(C)c1ncccc1Oc1cnc2c(F)c(F)ccc2n1 [Compound 1-31] |  | ≥ 75% | ≥ 75% |  | A (Control value of 60% or more) | 
22 | Cc1nc2c(F)cccc2cc1Oc1cccnc1C(C)OCc1ccccc1 (racemic) [a-38] | ≥ 75% | ≥ 75% | ≥ 75% | ≥ 75% |  | A (Control value of 60% or more)
23 | CC(C)OC(=O)C(C)(C)c1ncccc1Oc1cnc2c(F)c(F)ccc2c1 [a-74] |  | ≥ 75% | ≥ 75% |  | A (Control value of 60% or more) | 
24 | CC(C)(C)C(=O)c1ncccc1Oc1cnc2c(F)cccc2c1 [a-6] |  | ≥ 75% | ≥ 75% | ≥ 75% | A (Control value of 60% or more) | A (Control value of 60% or more)
25 | CC(=O)C(C)(C)c1ncccc1Oc1cnc2c(F)cccc2c1 [a-15, 3-[3-(8-fluoro-quinolin-3-yloxy)-pyridin-2-yl]-3-methyl-butan-2-one] |  |  |  |  | A (Control value of 60% or more) | 
26 | CC(C)(O)C(C)(C)c1ccccc1Oc1cnc2ccccc2n1 [Compound 1-2] |  | ≥ 75% | ≥ 75% |  | A (Control value of 60% or more) | 
27 | COC(C)(C)c1ncccc1Oc1nc2ccc(F)c(F)c2nc1C [Compound 1-35, 5,6-difluoro-2-[2-(1-methoxy-1-methyl-ethyl)-pyridin-3-yloxy]-3-methyl-quinoxaline] |  |  |  |  | A (Control value of 60% or more) | A (Control value of 60% or more)
28 | C=CCOC(C)(C)c1ncccc1Oc1cnc2c(F)cccc2n1 [Compound 1-29] |  | ≥ 75% | ≥ 75% |  | A (Control value of 60% or more) | 
29 | CC(C)OC(=O)C(C)(C)c1ncccc1Oc1cnc2ccccc2c1 [a-94] |  | ≥ 75% | ≥ 75% |  | A (Control value of 60% or more) | 
30 | CCOC(C)(C)c1ncccc1Oc1cc2ccc(F)cc2nc1C [a-92] | ≥ 75% | ≥ 75% | ≥ 75% | ≥ 75% | A (Control value of 60% or more) | A (Control value of 60% or more)
31 | FC(F)(F)c1cccnc1Oc1cnc2ccccc2c1 [b-1] |  |  |  |  |  | B (Control value of 40% to less than 60%)
32 | CC(=O)C(C)(C)c1c(F)cccc1Oc1nc2ccc(F)c(F)c2nc1C [Compound 1-15] | ≥ 75% | ≥ 75% | ≥ 75% | ≥ 75% | A (Control value of 60% or more) | 
33 | CC(=O)C(C)(C)c1c(F)cccc1Oc1cnc2c(F)c(F)ccc2n1 [Compound 1-14] | ≥ 75% | ≥ 75% | ≥ 75% | ≥ 75% | A (Control value of 60% or more) | 
34 | CC(C)OC(=O)C(C)(C)c1ncccc1Oc1cnc2c(F)cccc2c1 [a-23] |  | ≥ 75% | ≥ 75% |  | A (Control value of 60% or more) | 

From patent US9060517B2, “Nitrogenated heterocyclic compound and agricultural or horticultural fungicide” (Nippon Soda Co., Ltd., priority 2011, dated 2015)
